According to patent publication US7910556B2 (Kowa Company, Ltd., priority 2004, dated 2011):

Test: general procedure: solution-phase peptide synthesis; N,N'-dicyclohexylcarbodiimide / 1-hydroxybenzotriazole hydrate
Settings: coupling step

With “2-furoyl-β-cyclohexyl-L-alanyl-glycyl-glycyl-β-cyclohexyl-L-alanyine 2-(1-piperidinyl)ethyl amide” the step yield was 75%.
